Results published in patent publication US20030064071A1.
Results are given in words; binding and its absence hold for the method and conditions named. Some results given as binding are weak or reduced against the parent protein; the word gives no strength. Tags and fused reporters may be left off the sequences shown.

The chains behind the UniProt entries cited, without tags or fusion partners. Where a name states a change or a piece, a line headed by the entry shows the natural chain unless it says otherwise.
UniProt Q9NNX6: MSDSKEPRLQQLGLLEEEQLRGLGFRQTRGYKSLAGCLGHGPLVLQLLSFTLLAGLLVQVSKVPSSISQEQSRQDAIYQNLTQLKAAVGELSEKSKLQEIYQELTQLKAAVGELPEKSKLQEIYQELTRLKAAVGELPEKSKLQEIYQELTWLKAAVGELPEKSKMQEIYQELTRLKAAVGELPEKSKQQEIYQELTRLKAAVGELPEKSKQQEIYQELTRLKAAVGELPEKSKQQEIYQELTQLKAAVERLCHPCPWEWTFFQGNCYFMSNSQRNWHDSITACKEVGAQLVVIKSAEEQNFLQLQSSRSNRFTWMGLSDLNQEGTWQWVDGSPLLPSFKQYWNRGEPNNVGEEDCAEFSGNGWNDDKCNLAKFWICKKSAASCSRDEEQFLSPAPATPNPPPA

Molecular target: T1, ICAM-3-Fc (UniProt P32942)
T1 sequence (looked up): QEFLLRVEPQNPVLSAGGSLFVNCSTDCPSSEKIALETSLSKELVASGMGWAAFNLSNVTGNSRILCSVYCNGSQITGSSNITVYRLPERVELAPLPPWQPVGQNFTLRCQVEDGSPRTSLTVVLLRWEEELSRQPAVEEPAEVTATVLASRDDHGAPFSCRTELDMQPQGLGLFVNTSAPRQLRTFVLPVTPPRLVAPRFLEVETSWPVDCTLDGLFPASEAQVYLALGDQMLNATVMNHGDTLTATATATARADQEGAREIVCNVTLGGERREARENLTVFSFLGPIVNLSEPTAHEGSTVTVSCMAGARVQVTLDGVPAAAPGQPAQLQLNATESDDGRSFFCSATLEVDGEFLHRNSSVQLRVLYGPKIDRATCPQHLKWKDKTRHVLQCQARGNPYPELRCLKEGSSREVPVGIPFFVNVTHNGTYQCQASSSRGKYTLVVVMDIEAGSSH
Test: screen for molecules on DC that bind ICAM-3

DC-SIGN (from UniProt Q9NNX6 1-404) (receptor)
binding: binds
